Test results as given in article PMC4326193.
These are yes or no findings as the source states them, for the method shown. Binding seen in cells or lysates may run through a third protein. Some binding calls cover weakened binding; strength is not graded here.

Chains of the proteins cited; added tags and fusions are not shown. Residues count along the entry.
UniProt P34741, residues 19-201: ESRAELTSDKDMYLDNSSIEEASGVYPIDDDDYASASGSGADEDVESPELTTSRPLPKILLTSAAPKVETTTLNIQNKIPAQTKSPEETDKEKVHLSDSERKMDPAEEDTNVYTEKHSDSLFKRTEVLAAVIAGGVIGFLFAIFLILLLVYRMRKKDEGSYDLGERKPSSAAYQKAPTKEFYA

T1: caveolin-2 (human (endogenous in MDA-MB231)) (UniProt P51636)
T1 sequence: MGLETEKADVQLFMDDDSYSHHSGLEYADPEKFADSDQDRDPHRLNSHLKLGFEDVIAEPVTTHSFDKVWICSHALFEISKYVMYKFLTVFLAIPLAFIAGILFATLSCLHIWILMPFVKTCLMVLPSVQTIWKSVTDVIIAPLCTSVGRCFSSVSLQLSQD

B1: syndecan-4 (protein, UniProt P31431 19-198)
chain: ESIRETEVIDPQDLLEGRYFSGALPDDEDVVGPGQESDDFELSGSGDLDDLEDSMIGPEVVHPLVPLDNHIPERAGSGSQVPTEPKKLEENEVIPKRISPVEESEDVSNKVSMSSTVQGSNIFERTEVLAALIVGGIVGILFAVFLILLLMYRMKKKDEGSYDLGKKPIYKKAPTNEFYA

Target: T1, caveolin-2 (human (endogenous in MDA-MB231))
Experiment: co-IP; MDA-MB231 lysates (20 mM HEPES pH 7.5, 150 mM NaCl, 1% Triton X-100, 2 mM EDTA), pre-cleared, incubated with caveolin-2 antibody (rabbit IgG as control) overnight at 4°C, protein A-agarose, immunoblot; cells untreated or treated with chondroitin sulfate or heparan sulfate

Molecule	binding
syndecan-2 (from UniProt P34741 19-201)	binds
B1	no binding
